Chains of the proteins cited; added tags and fusions are not shown. Residues count along the entry.
UniProt Q96GG9, whole entry: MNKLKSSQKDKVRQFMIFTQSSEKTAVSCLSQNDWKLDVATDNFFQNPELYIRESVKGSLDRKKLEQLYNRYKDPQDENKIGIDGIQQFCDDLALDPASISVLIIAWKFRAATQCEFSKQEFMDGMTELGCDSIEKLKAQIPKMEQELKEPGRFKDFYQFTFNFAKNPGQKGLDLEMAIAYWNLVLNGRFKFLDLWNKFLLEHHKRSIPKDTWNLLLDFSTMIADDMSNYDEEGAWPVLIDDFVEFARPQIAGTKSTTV
UniProt Q96GG9, 60-248 limits assumed: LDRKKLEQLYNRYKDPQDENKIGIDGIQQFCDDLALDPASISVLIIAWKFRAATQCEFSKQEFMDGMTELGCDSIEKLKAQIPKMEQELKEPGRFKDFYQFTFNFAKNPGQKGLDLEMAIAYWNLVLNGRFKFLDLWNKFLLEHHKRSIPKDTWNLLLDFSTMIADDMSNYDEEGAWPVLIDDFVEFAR

According to patent US20250163057A1, “DCN-1 MODULATING COMPOUNDS AND METHODS OF USE THEREOF” (Cellarity, Inc., priority 2023, published 2025):

Tests used:
DCN1 protein = DCN1 protein (Homo sapiens (Human), UniProt Q96GG9); experiment: Intact Protein MS Analysis with the RapidFire-TOF System (covalent adduct formation); conditions: MS Emax; 400 nM DCN1, 3 hours at room temperature
[1] = molecular target: DCN1 (DCUND1) protein PONY domain (Homo sapiens (Human), UniProt Q96GG9); experiment: TR-FRET assay, DCN1 binding with FAM-labeled probe; conditions: read-out: TR FRET IC50 24 hr; 24 hr after treatment with compound

In the case of `CCN1C(=O)[C@@H](NC(=O)c2cccc(C(F)(F)F)c2)[C@@H](c2ccc(F)cc2)c2c(CN(C)C(=O)/C=C/CN3CCOCC3)nn(-c3ccccc3)c21` (relative stereo), the “% Adduct Formation” value (DCN1 protein) is reported as “+ (MS Emax % adduct formation greater than or equal to 0.0 and less than or equal to 30.0)” and the IC50 [1] is reported as 1000 to 3000 nM.

Structures were worked out from names or drawings and are uncertain.
